Measurements from patent US6017715A (priority 1996, dated 2000).

Experiment: Calculation of Apparent Bioavailability Factor (ABF) in stormwater
Settings: stormwater sample, Example 3(B)(2)

Compound	Apparent Bioavailability Factor (ABF), bioavailable portion of total
CCOP(=S)(OCC)Oc1nc(Cl)c(Cl)cc1Cl [Chlorpyrifos, chlorpyrifos]	0.16
CCOP(=S)(OCC)Oc1cc(C)nc(C(C)C)n1 [Diazinon, diazinon]	0.47
